This is one part of the list. The data scatter; read single values as rough.
Compound: ClCC(=O)N[C@H]1CCCc2ccccc12
Assay: log2 mean competition ratio of IA-DTB cysteine labelling (DMSO/compound) (log2 ratio); higher = stronger cysteine engagement by compound
Details: 50 µM; treatment time: 4 h; cell line lysate: HEK293T
Method: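 IA-DTB competitive cysteine chemoproteomics in HEK293T RIPA lysate. Lysates were treated with compound 29 or 30 at 50 or 200 µM for 4 h, then IA-DTB (500 µM, 1 h), trypsin-digested, NeutrAvidin-enriched and analysed by diaPASEF. Competition ratio = intensity DMSO / intensity compound (n=4 treated, n=64 DMSO); binding: mean log2 CR ≥ 1 and p ≤ 0.05 plus QC filters. Target is the cysteine site.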

By UniProt entry, the sequences of proteins in these tests, tags left out. Where a name states a change or a piece, a line headed by the entry shows the natural chain unless it says otherwise. Residues count along the entry.
UniProt O75116, 239-263: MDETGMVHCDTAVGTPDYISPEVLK
UniProt O43148: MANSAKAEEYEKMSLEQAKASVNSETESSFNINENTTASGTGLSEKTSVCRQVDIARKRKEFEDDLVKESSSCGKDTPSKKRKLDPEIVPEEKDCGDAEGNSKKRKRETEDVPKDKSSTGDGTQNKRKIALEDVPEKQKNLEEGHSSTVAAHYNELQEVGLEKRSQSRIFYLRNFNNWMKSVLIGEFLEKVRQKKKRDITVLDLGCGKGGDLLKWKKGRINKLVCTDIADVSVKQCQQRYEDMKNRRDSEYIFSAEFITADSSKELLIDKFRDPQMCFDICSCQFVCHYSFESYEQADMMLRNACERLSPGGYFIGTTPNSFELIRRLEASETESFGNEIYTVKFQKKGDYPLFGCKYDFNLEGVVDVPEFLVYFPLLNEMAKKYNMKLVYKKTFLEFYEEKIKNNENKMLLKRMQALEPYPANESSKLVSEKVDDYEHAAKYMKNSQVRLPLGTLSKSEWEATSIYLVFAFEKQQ
UniProt Q9BST9: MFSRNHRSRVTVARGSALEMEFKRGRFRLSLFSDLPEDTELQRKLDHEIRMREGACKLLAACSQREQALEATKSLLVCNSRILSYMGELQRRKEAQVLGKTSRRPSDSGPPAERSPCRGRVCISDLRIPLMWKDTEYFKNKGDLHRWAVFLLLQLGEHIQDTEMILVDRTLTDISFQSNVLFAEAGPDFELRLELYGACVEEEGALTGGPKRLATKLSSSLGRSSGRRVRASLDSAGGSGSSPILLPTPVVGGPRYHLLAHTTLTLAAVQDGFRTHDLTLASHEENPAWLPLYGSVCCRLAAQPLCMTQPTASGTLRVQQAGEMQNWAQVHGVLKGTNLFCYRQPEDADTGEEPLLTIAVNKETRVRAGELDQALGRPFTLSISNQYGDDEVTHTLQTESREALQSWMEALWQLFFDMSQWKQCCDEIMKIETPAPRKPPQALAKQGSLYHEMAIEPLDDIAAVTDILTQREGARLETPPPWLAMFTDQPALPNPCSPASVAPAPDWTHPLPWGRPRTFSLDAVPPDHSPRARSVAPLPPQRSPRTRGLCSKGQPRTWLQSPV
UniProt Q8N122: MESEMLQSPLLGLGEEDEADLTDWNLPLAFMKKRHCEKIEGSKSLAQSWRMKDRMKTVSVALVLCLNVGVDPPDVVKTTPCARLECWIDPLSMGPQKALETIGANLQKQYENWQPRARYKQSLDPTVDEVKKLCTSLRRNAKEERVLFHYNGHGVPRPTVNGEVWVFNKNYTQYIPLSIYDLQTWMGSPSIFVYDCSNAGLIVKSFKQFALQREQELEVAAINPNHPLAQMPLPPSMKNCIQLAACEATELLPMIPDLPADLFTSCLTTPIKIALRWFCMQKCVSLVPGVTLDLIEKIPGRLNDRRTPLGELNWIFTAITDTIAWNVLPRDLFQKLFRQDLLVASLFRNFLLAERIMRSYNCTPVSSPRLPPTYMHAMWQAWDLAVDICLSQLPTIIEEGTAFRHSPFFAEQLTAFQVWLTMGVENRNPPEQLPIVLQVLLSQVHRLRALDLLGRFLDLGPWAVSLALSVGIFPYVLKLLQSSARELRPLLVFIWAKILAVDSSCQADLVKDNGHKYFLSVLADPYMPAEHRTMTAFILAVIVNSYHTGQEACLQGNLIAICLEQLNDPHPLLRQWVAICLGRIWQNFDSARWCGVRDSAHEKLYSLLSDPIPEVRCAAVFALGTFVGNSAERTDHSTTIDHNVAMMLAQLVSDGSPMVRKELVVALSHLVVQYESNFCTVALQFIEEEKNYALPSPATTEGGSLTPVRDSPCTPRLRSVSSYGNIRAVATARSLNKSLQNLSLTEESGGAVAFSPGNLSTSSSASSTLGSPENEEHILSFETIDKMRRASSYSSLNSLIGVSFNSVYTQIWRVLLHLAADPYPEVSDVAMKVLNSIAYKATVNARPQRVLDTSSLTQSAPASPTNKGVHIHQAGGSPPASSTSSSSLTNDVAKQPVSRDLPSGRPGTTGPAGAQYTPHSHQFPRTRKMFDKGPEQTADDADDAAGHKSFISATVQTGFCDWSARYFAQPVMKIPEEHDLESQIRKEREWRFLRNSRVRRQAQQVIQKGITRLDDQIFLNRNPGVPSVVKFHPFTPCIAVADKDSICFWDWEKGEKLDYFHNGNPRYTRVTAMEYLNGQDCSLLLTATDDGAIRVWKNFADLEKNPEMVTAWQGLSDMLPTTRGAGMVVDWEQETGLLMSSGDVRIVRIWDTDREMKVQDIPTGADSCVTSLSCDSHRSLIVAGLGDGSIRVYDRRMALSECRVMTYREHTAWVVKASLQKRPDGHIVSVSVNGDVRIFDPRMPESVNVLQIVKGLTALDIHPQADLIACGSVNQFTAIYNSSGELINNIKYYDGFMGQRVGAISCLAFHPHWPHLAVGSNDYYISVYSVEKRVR
UniProt Q5JTH9: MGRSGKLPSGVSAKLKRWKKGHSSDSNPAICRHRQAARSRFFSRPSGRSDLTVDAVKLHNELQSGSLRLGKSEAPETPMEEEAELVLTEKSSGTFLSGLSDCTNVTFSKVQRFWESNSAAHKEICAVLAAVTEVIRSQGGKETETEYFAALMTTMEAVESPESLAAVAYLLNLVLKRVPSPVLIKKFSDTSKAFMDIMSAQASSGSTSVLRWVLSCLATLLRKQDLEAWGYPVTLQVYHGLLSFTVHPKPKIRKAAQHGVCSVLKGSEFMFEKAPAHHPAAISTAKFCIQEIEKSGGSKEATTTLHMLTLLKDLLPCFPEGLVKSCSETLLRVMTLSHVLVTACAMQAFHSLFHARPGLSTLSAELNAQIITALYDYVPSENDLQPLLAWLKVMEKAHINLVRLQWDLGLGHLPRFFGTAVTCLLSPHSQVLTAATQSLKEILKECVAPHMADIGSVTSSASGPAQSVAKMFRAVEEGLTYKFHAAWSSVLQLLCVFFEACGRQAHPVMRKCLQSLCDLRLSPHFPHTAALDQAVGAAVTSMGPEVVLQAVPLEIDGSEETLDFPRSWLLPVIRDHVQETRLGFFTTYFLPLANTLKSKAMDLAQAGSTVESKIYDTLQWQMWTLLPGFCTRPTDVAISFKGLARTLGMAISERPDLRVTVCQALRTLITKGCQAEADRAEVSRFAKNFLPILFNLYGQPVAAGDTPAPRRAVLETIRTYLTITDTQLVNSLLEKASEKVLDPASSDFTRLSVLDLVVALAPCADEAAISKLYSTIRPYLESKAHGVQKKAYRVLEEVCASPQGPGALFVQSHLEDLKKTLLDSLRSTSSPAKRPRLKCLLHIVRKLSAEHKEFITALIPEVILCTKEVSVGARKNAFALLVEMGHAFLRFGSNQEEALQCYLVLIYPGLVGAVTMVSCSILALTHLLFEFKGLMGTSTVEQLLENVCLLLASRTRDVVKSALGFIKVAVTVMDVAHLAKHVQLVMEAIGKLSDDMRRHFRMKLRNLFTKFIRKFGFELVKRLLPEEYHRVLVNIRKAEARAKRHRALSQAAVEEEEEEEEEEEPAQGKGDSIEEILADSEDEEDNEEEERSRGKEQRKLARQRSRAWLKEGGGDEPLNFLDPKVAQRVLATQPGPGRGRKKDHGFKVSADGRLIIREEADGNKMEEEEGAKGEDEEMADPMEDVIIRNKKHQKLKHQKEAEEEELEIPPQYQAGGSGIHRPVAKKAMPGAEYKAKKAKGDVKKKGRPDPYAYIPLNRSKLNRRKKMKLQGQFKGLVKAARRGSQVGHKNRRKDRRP
UniProt Q99496, 162-196: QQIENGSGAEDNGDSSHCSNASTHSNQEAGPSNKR
UniProt Q96T51: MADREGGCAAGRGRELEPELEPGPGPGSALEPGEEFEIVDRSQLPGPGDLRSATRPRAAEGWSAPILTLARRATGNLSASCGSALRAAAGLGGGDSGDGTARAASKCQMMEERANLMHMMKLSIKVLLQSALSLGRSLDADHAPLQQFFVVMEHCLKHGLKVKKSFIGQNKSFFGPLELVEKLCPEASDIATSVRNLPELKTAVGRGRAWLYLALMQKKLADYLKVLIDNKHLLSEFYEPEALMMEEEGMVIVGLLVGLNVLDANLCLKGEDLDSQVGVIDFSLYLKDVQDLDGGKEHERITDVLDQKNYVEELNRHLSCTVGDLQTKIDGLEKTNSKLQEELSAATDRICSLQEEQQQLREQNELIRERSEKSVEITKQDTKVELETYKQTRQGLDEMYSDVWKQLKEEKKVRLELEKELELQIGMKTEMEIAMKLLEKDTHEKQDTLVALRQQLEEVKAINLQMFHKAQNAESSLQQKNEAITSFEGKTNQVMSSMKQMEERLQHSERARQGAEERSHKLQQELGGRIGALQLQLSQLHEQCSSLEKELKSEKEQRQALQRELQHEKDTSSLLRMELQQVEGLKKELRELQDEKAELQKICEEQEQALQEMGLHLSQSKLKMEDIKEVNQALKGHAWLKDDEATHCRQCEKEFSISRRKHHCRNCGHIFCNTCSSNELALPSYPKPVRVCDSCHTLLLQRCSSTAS
UniProt Q8IYW5, whole entry, looked up: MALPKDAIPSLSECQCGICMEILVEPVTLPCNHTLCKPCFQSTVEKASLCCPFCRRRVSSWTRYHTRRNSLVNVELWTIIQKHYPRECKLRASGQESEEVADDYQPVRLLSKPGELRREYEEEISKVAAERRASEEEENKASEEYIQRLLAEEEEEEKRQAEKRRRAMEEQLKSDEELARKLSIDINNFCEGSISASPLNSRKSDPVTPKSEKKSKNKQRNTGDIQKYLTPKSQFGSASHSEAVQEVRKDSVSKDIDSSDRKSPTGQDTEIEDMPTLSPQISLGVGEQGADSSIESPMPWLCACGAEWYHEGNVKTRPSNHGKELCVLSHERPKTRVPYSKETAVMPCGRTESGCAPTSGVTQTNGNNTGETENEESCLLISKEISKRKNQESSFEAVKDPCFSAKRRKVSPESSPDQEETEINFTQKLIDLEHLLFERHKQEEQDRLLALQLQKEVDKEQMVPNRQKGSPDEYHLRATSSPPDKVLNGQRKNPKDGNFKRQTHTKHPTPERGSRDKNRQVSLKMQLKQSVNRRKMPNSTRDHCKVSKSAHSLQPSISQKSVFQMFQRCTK
UniProt Q8N2Y8: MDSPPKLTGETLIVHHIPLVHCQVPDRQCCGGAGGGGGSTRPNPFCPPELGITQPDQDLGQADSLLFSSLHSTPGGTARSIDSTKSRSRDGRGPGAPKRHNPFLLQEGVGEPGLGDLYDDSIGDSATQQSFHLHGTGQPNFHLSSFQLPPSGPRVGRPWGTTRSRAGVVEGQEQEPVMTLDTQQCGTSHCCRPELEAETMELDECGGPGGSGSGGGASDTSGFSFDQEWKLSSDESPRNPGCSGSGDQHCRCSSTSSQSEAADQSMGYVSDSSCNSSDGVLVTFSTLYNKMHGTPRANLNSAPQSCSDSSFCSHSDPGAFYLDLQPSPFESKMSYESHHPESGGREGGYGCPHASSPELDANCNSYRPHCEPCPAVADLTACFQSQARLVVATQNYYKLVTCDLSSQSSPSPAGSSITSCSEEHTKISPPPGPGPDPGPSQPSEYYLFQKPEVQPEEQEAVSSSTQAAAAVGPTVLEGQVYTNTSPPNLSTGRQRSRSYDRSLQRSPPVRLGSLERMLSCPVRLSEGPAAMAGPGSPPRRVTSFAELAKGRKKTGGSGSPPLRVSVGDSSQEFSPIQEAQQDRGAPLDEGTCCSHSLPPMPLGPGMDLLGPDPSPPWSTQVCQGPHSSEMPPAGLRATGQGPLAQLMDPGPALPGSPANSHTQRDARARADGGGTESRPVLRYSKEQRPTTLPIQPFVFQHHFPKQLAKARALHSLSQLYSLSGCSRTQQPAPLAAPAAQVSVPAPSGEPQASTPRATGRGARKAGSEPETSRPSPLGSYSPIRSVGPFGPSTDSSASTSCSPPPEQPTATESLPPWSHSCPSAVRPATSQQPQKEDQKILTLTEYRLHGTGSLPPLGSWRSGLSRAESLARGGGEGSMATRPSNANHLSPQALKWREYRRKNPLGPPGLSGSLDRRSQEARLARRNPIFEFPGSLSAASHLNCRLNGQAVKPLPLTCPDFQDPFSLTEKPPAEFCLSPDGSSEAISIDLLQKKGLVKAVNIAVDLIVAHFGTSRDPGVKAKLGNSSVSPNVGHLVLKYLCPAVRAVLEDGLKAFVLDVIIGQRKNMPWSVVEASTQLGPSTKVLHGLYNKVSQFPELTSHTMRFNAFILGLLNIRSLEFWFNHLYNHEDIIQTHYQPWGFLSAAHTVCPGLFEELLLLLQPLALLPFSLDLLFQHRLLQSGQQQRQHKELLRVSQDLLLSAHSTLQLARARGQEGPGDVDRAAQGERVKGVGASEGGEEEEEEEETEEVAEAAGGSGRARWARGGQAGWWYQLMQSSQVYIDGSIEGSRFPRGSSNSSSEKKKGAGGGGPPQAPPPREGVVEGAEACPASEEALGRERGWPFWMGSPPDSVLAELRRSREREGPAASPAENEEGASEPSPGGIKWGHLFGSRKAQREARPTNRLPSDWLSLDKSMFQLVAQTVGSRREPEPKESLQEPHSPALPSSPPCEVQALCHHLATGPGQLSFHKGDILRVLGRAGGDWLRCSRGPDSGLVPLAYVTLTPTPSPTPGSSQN

Target	log2 mean competition ratio
ROCK2 C649 (UniProt O75116)	-0.751
ROCK2 C804 (UniProt O75116)	0.355
RNMT C73 (UniProt O43148)	-0.362
RTKN C122 (UniProt Q9BST9)	-0.279
RPTOR C283 (UniProt Q8N122)	0.0559
RRP12 C317 (UniProt Q5JTH9)	0.0521
RPP30 C87	0.0302
RPL3 C157 (UniProt P39023)	0.719
RPTOR C86 (UniProt Q8N122)	-0.191
RNF213 C4258	0.197
RXRB C247 (UniProt P28702)	-0.285
RNF2 C179 (UniProt Q99496)	-0.392
SACS C1118 (UniProt Q9NZJ4)	-0.25
RRP12 C31 (UniProt Q5JTH9)	0.316
RPL36A;RPL36AL C77;(C77)	0.3
RUFY1 C320 (UniProt Q96T51)	-0.0153
RNF213 C3261	-0.0728
ROCK2 C247 (UniProt O75116)	0.148
RNF31 C572 (UniProt Q96EP0)	0.209
RNF168 C348 (UniProt Q8IYW5)	0.781

Same assay, conditions: 200 µM; treatment time: 4 h; cell line lysate: HEK293T

Target	log2 mean competition ratio
ROCK2 C649 (UniProt O75116)	0.101
ROCK2 C804 (UniProt O75116)	0.127
RNMT C73 (UniProt O43148)	0.19
RTKN C122 (UniProt Q9BST9)	0.151
RPTOR C283 (UniProt Q8N122)	0.139
RRP12 C317 (UniProt Q5JTH9)	-0.116
RPP30 C87	0.0424
RPL3 C157 (UniProt P39023)	-0.287
RPTOR C86 (UniProt Q8N122)	0.0293
RNF213 C4258	0.28
RXRB C247 (UniProt P28702)	0.0395
RNF2 C179 (UniProt Q99496)	-0.267
SACS C1118 (UniProt Q9NZJ4)	-0.112
RRP12 C31 (UniProt Q5JTH9)	0.529
RPL36A;RPL36AL C77;(C77)	0.381
RUFY1 C320 (UniProt Q96T51)	-0.134
RNF213 C3261	-0.14
RUSC2 C520 (UniProt Q8N2Y8)	0.756
ROCK2 C247 (UniProt O75116)	-0.304
RNF31 C572 (UniProt Q96EP0)	0.052
RNF168 C348 (UniProt Q8IYW5)	-0.00758
